According to patent publication US20140162285A1, “Methods of Modulating Vesicular Trafficking” (The General Hospital Corporation, priority 2009, published 2014):
No constants are given. Whether binding was seen depends on the method and setting. In cells and extracts the contact can be indirect. Some binding calls cover weakened binding; strength is not graded here.

The chains behind the UniProt entries cited, without tags or fusion partners.
UniProt Q99418: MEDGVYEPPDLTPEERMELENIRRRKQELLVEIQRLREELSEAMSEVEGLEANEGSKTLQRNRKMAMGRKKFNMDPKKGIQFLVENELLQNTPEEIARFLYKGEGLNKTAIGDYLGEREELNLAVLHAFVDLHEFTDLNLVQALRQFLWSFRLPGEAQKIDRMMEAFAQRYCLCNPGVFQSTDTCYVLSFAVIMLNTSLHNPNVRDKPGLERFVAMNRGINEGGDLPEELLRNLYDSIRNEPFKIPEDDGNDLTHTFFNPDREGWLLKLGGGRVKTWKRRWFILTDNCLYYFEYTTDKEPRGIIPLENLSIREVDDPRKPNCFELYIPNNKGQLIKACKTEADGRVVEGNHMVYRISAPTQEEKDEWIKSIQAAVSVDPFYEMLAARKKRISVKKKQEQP

Experiments:
GST-ARNO(wt) (human) [1] = target: GST-ARNO(wt) (human) (UniProt Q99418); test: peptide pull-down: biotinylated peptide on streptavidin beads, purified GST-ARNO(wt) in solution, Western blot with anti-GST antibody
GST-ARNO(wt) (human) [2] = target: GST-ARNO(wt) (human) (UniProt Q99418); test: peptide pull-down; asterisk marks interacting peptides
GST-ARNO(wt) (human) [3] = target: GST-ARNO(wt) (human) (UniProt Q99418); test: peptide pull-down: biotinylated peptide on streptavidin beads, GST-ARNO(wt) in solution, Western blot with anti-GST antibody; beads without peptide as blank
GST-ARNO(wt) (human) [4] = target: GST-ARNO(wt) (human) (UniProt Q99418); test: peptide pull-down on streptavidin beads, anti-GST Western blot

Measured: binding

MGSLFRSESMCLAQLFLC (N-terminal biotin tag) [a2N-01]
binds: GST-ARNO(wt) (human) [1] | GST-ARNO(wt) (human) [2] | GST-ARNO(wt) (human) [3] | GST-ARNO(wt) (human) [4]

ETGEVIKWYVFLISFWC (N-terminal biotin tag) [a2N-12]
binds: GST-ARNO(wt) (human) [1] | GST-ARNO(wt) (human) [2] | GST-ARNO(wt) (human) [3] | GST-ARNO(wt) (human) [4]

NMCSFDVTNKCLIAEVWCPC (N-terminal biotin tag) [a2N-18]
binds: GST-ARNO(wt) (human) [1] | GST-ARNO(wt) (human) [2] | GST-ARNO(wt) (human) [3] | GST-ARNO(wt) (human) [4]

YGVGSYREVNPALFTIIC (N-terminal biotin tag) [a2N-22]
binds: GST-ARNO(wt) (human) [1] | GST-ARNO(wt) (human) [2] | GST-ARNO(wt) (human) [3] | GST-ARNO(wt) (human) [4]

VQFRDLNQNVSSFQRC (N-terminal biotin tag) [a2N-03]
binds: GST-ARNO(wt) (human) [1] | GST-ARNO(wt) (human) [2] | GST-ARNO(wt) (human) [3] | GST-ARNO(wt) (human) [4]

GYTIVTYAELDECLEDPC (N-terminal biotin tag) [a2N-11]
binds: GST-ARNO(wt) (human) [1] | GST-ARNO(wt) (human) [2] | GST-ARNO(wt) (human) [3] | GST-ARNO(wt) (human) [4]
